# In PubChem BioAssay AID2685 (National Center for Advancing Translational Sciences (NCATS), 2010):
# The list shows a part of the results. These are further read-outs of the screen, such as a control signal, another cell line or another target. No call is given for them. The list favours compounds with an active or inconclusive main result. Words in brackets tell the shape of the fitted curve; partial curves, single points and poor fits give uncertain potencies.
# Experiment: qHTS Assay for Lipid Storage Modulators in Drosophila S3 Cells;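 on cell number change: cells counted by Cell Tracker Red CMTPX staining in the red channel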
# Details: BODIPY lipid droplet fluorescence, 18-24 h; for cell number change: measured here: cell count max response, cells fed with added oleic acid
# Outline: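 Drosophila S3 cells loaded with oleic acid (400 uM, as added) and compounds at several concentrations; lipid droplets imaged by 488-nm laser-scanning cytometry, 500–530 nm intensity and object ratio to cell channel. Percent activity normalized to 20 uM Triacsin C.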
# [1] = measured here: lipid fluorescence (Fed channel) AC50, cells fed with added oleic acid
# [2] = measured here: cell number channel AC50, cells fed with added oleic acid
SMILES,cell number change,AC50 [1],AC50 [2]
CCn1nc(-c2ccccc2)c2nc3ccccc3nc21,12.5%,"13 µM [rising, partial curve, poor fit]",–
O=C(Nc1ccc(Br)cc1)Nc1cnccn1,-17.7%,"29.1 µM [falling, single point]",–
C#CC(C)(CC)NC(=O)c1cc(OC)c(OC)c(OC)c1 (centres undefined),25.7%,"29.1 µM [rising, single point]",–
CC(C)c1ccc(N(C(=O)CNC(=O)c2ccco2)C(C(=O)NC2CCCC2)c2cccnc2)cc1 (centres undefined),24.6%,"0.164 µM [falling, full curve]",–
CCN(C(=O)C12CC3CC(CC(C3)C1)C2)C1CCS(=O)(=O)C1 (centres undefined),-26%,"23.1 µM [falling, partial curve]",–
CC(C)C(=O)NCCc1nc2ccccc2n1CCCOc1ccc(Cl)cc1,-48.6%,"23.1 µM [falling, partial curve]","25.9 µM [falling, single point]"
CCN(CC(=O)Nc1c(F)cccc1F)C(=O)Cc1ccccc1,24.1%,"16.4 µM [rising, single point]",–
COc1ccc(C(=O)NCC(=O)N2CC=C(c3ccccc3)CC2)cc1OC,19.7%,"4.11 µM [rising, full curve, poor fit]",–
NC1CCCCC1N=Cc1c(O)n(CCc2ccc(F)cc2)c(=O)[nH]c1=O (centres undefined),-19.9%,"0.731 µM [falling, single point]",–
COc1ccc(S(=O)(=O)N2CCCCC2)cc1NC(=O)C1COc2ccccc2O1 (centres undefined),-26.9%,"2.59 µM [falling, partial curve, poor fit]",–
C=CCn1cc(/C=C/c2cc[n+](C)cc2)c2ccccc21,-14.2%,"14.6 µM [falling, partial curve, poor fit]",–
CC(NC(=O)c1ccccc1NC(=O)c1ccccc1)C(=O)N1CCOCC1 (centres undefined),-50%,–,"20.6 µM [falling, single point]"
O=C(c1ccc2c(c1)N(Cc1ccccc1F)C(=O)c1ccccc1S2)N1CCOCC1,17.6%,"6.51 µM [rising, partial curve, poor fit]",–
Cc1onc(-c2ccccc2)c1C(=O)NNC(=O)c1ccccc1Br,15.9%,"7.31 µM [rising, partial curve]",–
O=C(NC1CCCCC1)C(c1ccccc1)N1CCCC1 (centres undefined),–,–,"6.51 µM [rising, single point]"
Cc1ccccc1OCC(=O)N/N=C/c1cccn1C,30.9%,–,"2.59 µM [rising, full curve]"
O=C(c1cc(-c2ccco2)on1)N1CCOCC1,-11.7%,–,"3.66 µM [falling, single point]"
COc1ccc(OC)c(N2C(N)=C(C#N)C(c3ccc(OC)c(O)c3)C3=C2CC(C)(C)CC3=O)c1 (centres undefined),9.35%,"0.0259 µM [rising, full curve, poor fit]",–
O=S(=O)(c1ccccc1)N1CCC(c2ccccc2)CC1,-4.69%,"0.517 µM [rising, partial curve]",–
CC(C)CC(NC(=O)C1CCC(C)CC1)C(=O)NCCN1CCOCC1 (centres undefined),12.6%,"29.1 µM [rising, single point]",–

SMILES,cell number change,AC50 [1],AC50 [2]
CCCN(CC1CC1)C(=O)COC(=O)c1oc2ccc(OCC)cc2c1C,–,"2.06 µM [falling, full curve]",–
CC(=O)Oc1ccc(-c2csnn2)cc1,16.4%,–,–
COc1cccc(CC2(CO)CCCN(Cc3ccc(OC)c(C)c3OC)C2)c1 (centres undefined),-6.74%,–,–
Cc1cc(C)cc(N(CCC(=O)O)S(=O)(=O)c2ccc3ccccc3c2)c1,18.9%,"29.1 µM [rising, single point]",–
Fc1ccc(-c2nnn(Cc3nc4ccccc4s3)n2)cc1,-0.163%,"23.1 µM [rising, single point]",–
COc1cc(C(=O)NNc2nc3cc4c(cc3s2)OCO4)cc(OC)c1OC,9.25%,"0.0651 µM [rising, full curve, poor fit]",–
COc1cc(C(=O)N2CCCCC2)ccc1OCC(=O)Nc1ccc(F)cc1,4.71%,"29.1 µM [falling, single point]",–
CC(=O)c1c(C)[nH]c(C(=O)OCCOc2ccccc2)c1C,15.1%,"6.51 µM [rising, single point]",–
COc1ccc2c(Cl)c(C(=O)N/N=C/c3cccnc3)sc2c1,-4.17%,"11.6 µM [rising, single point]",–
CC1CCN(S(=O)(=O)c2ccc3ccccc3c2)CC1,–,"5.17 µM [falling, partial curve]",–
O=C(Nn1c(C2CCCCC2)nc2ccccc2c1=O)c1ccc(Cl)c([N+](=O)[O-])c1,-18%,"0.82 µM [falling, full curve, poor fit]","1.03 µM [falling, full curve, poor fit]"
Cc1cccc(NC(=O)Nc2ccc(F)cc2)n1,10.2%,"0.092 µM [rising, full curve, poor fit]",–
C=CCn1c(SCc2ccc(C(=O)Nc3nccs3)cc2)nnc1-c1ccc(C)c(Cl)c1,-40.2%,"29.1 µM [falling, single point]","20.6 µM [falling, single point]"
Cc1ccc(N(C(=O)c2ccco2)C(C(=O)NC2CCCC2)c2cccnc2)cc1C (centres undefined),-11.5%,"5.17 µM [falling, single point]","5.8 µM [rising, single point]"
CCCn1c(SCC(=O)NC2CCC(C)CC2)n[nH]c1=O (centres undefined),-11.6%,–,–
O=C(O)Cc1sc(Nc2cccc3ccccc23)nc1-c1ccccc1,–,"0.231 µM [falling, full curve]",–
CCc1ccc(CNc2ccc3c(c2)ncn3CC)cc1,-31.3%,"20.6 µM [falling, single point]","25.9 µM [falling, single point]"
CC1CCC(NC(=O)c2cc(S(=O)(=O)N3CCCCC3)c[nH]2)CC1 (centres undefined),24.6%,–,–
COc1ccc(NC(=O)C(C)N(c2ccc(C)cc2)S(C)(=O)=O)cc1 (centres undefined),83.6%,"6.51 µM [falling, single point]","20.6 µM [rising, partial curve]"
O=c1[nH]c2cccnc2n(CCNc2ncc(C(F)(F)F)cc2Cl)c1=O,–,"6.51 µM [falling, single point]",–

# Looked up above.
# For cell number change, `CC1CCC(NC(=O)c2cc(S(=O)(=O)N3CCCCC3)c[nH]2)CC1` (centres undefined) is entered as 24.6%
# For AC50 [2], `CCc1ccc(CNc2ccc3c(c2)ncn3CC)cc1` is entered as 25.9 µM [falling, single point]

# Following part.

SMILES,cell number change,AC50 [1],AC50 [2]
COc1ccc(C)cc1NC(=O)C(OC(=O)c1cccc(S(=O)(=O)N(C)c2ccccc2)c1)c1ccccc1 (centres undefined),1.9%,"2.31 µM [falling, partial curve]",–
CCN(CC(=O)Nc1cc(Cl)ccc1C)C(=O)c1nc2nc(C)cc(C)n2n1,34.3%,"1.16 µM [rising, full curve]","0.461 µM [rising, full curve]"
CCn1c(=O)c2sccc2n2c(CCCC(=O)NCCc3ccc(S(N)(=O)=O)cc3)nnc12,23.4%,–,–
O=C(NC1CCCCC1)c1n[nH]c2c1CCCCC2,-24.9%,"4.11 µM [falling, single point]",–
CNCC(O)COc1cccc(OC)c1 (centres undefined),7.06%,"0.731 µM [falling, full curve]","0.731 µM [falling, full curve]"
O=C(Nc1ncccc1O)c1ccc(NS(=O)(=O)c2ccc3[nH]c(=O)[nH]c3c2)cc1,67.5%,"5.17 µM [rising, partial curve]","25.9 µM [rising, partial curve, poor fit]"
O=c1c2c3nc4ccccc4nc3n(-c3cccc(F)c3)c2ncn1Cc1ccc2c(c1)OCO2,34.8%,"0.058 µM [rising, full curve, poor fit]","29.1 µM [rising, single point]"
CC(OC(=O)c1cccc(S(=O)(=O)N2CCOCC2)c1)C(=O)NC1CCCCC1C (centres undefined),-5.04%,–,–
FC(F)(F)c1ccc(Oc2ccccc2Cl)nc1,-32.5%,–,"0.517 µM [falling, full curve]"
CCOc1ccc(NC(=O)c2ccc(CNc3c(N4CCCC4)c(=O)c3=O)cc2)cc1,-24.5%,"2.06 µM [falling, full curve]",–
Cc1cc(C(F)(F)F)c(C#N)c(SCC(=O)Nc2nc3ccccc3s2)n1,-15.1%,"25.9 µM [falling, single point]",–
Cc1ccc(CNC(=O)N2CCN(c3ccc(C)cc3)CC2)cc1,-22.7%,"0.58 µM [falling, single point]",–
CN(C)CCNC(=O)c1c(NC(=O)c2ccccc2)sc2c1CCCC2,-1.17%,"14.6 µM [falling, single point]",–
COc1ccc(NC(=O)c2ccc3ccccc3c2)cc1,-15.7%,"2.31 µM [rising, partial curve]",–
C=C(C)CSc1nnc([C@H](CCSC)NC(=O)OC(C)(C)C)o1,45.8%,"0.366 µM [rising, full curve, poor fit]","9.2 µM [rising, partial curve, poor fit]"
COc1cc(C)c(CNc2ccc(OC)c(OC)c2)cc1C,-25%,–,–
COc1ccc(-c2ncc3ccccn23)cc1,2.52%,–,–
COc1ccccc1Nc1nc(-c2sc(NC(=O)c3ccco3)nc2C)cs1,-14.9%,"0.461 µM [rising, full curve]",–
COc1cccc(OCCCn2cc(/C=C3/C(=N)N4C=C(C)SC4=NC3=O)c3ccccc32)c1,-0.999%,"29.1 µM [falling, single point]",–
C=CC[C@@H]1C=C[C@H](O/N=C/c2ccc(C(=O)N3[C@H](c4ccc(C)cc4)[C@@H](C)CC[C@H]3C(=O)OC)cc2)[C@@H](CO)O1,-33.9%,"8.2 µM [falling, partial curve]","8.2 µM [falling, partial curve]"
